Patent US20220017630A1 (JIANGSU SIMCERE PHARMACEUTICAL, published 2022)
Results are given in words; binding and its absence hold for the method and conditions named. Some results given as binding are weak or reduced against the parent protein; the word gives no strength.

Amino acid sequences for entries named in this document (tags omitted). A change or cut given only in a name is not applied to a line headed by its entry. Residues count along the entry.
UniProt P20333: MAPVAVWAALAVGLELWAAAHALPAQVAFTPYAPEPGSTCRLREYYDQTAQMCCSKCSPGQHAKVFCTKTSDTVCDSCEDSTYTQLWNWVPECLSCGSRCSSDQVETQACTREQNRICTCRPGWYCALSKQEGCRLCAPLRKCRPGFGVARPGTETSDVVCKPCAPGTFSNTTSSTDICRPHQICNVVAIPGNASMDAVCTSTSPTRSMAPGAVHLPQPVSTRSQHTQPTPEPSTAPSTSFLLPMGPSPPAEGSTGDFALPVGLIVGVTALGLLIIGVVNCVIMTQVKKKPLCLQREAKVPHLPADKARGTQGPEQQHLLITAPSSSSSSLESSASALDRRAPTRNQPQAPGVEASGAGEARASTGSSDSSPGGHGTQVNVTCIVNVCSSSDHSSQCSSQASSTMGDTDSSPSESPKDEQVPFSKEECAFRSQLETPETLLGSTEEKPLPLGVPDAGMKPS
human TNFR2 on the cell surface (CHO-TNFR2 cells; human Treg cells): residues 23-461 of P20333
Human TNFR2 recombinant protein (Sino 10417-H08H): residues 23-257 of P20333

Tests used:
[1] = biological target: cynomolgus TNFR2 (Sino 90102-C08H) (cynomolgus); assay: ELISA
[2] = biological target: cynomolgus TNFR2 (Sino 90102-C08H) (cynomolgus); assay: SPR Biacore
[3] = biological target: cynomolgus TNFR2 (Sino 90102-C08H) (cynomolgus); assay: recap of the earlier examples, method not named
[4] = biological target: Human TNFR2 recombinant protein (Sino 10417-H08H) (human) (UniProt P20333); assay: ELISA
[5] = biological target: Human TNFR2 recombinant protein (Sino 10417-H08H) (human) (UniProt P20333); assay: SPR Biacore
[6] = biological target: Human TNFR2 recombinant protein (Sino 10417-H08H) (human) (UniProt P20333); assay: recap of the earlier examples, method not named
[7] = biological target: human TNFR2 on the cell surface (CHO-TNFR2 cells; human Treg cells) (human) (UniProt P20333); assay: flow cytometry on human Treg cells, antibody 200 ng/ml
[8] = biological target: human TNFR2 on the cell surface (CHO-TNFR2 cells; human Treg cells) (human) (UniProt P20333); assay: flow cytometry on CHO-TNFR2 cells, antibody diluted to 80 ng/ml
[9] = biological target: human TNFR2 on the cell surface (CHO-TNFR2 cells; human Treg cells) (human) (UniProt P20333); assay: flow cytometry on expanded human Treg cells, antibody 200 ng/ml, PE goat anti-human IgG Fc
[10] = biological target: human TNFR2 on the cell surface (CHO-TNFR2 cells; human Treg cells) (human) (UniProt P20333); assay: flow cytometry on CHO-TNFR2 cells, antibody diluted to 80 ng/ml, PE goat anti-human IgG Fc
[11] = biological target: human TNFR2 on the cell surface (CHO-TNFR2 cells; human Treg cells) (human) (UniProt P20333); assay: flow cytometry competition on CHO-TNFR2 cells against human TNFα-biotin [label on D00006), panel #088]

Measured: binding

B1: TNFR2 antibody #125 (antibody, V domains shown)
VH: EVQLQESGGGLVQPGGSLNLSCAASGFAFSIYDLSWVRQTPEKRLEWVAYINNGGISTYYSDTVKGRFTISRDNAKNTLYLQMSSLKSEDTAMYYCVRGPFYGSANYFDYWGQGTTVTVSS
VL: DIQMTQSPASLSLSVGETVTITCRASENIYSNLAWYQQKQGKSPQLLVYDATKLAEGVPSRFSGSESGTQYSLKINSLQSEDFGTYYCQHFWVTPWTFGGGTKLEIK
binds: [1] | [2] | [3]

B2: TNFR2 antibody #001 (antibody, V domains shown)
VH: EVQLQESGGGLVQPGGSLNLSCAASGFAFSTYDLSWVRQTPEKRLEWVAYINNGGISTYYSDTVKGRFTISRDNAKNTLYLQMSSLKSEDTAMYYCVRGPFYGSANYFDYWGQGTTVTVSS
VL: EIVMTQSPASLSLSVGETVTITCRTSESIYSNLPWYQQKQGKSPQLLVYDATKLAEGVPSRFSGSESGTQYSLKINSLQSEDFGTYYCQHFWVTPWTFGGGTKLEIK
notes: also called antibody #1
binds: [1] | [2] | [3]

B3: TNFR2 antibody #088 (antibody, V domains shown)
VH: EVQLQESGGGLVQPGGSLNLSCAASGFAFSTYDLSWVRQTPGKRLEWVAYINNGGISTYYSDTVKGRFTITRDNAKNTLYLQMSSLKSEDTAMYYCVRGPFYGSANYFDYWGQGTTVTVSS
VL: DILMTQSPASLSLFVGETVTITCRASENIYSNLAWYQQKQGKSPQLLVYDATKLAEGVPSRFSGSESGTQYSLKINSLQSEDFGTYYCQHFWVTPWTFGGGTKLEIK
binds: all assays above

B4: TNFR2 antibody #133 (antibody, V domains shown)
VH: EVQLQESGAELVRSGASVKLSCTASGFNIKDYYIQWVKQRPEQGLEWIGWIDPESGNTKYAPKFQDKATMTADTSSNTAYLQLSGLTSEDSAVYYCNAYYDYDGSMDYWGQGTTVTVSS
VL: DIVMTQSPLSLPVSLGDQASISCRSSQSLVHSNGNTYLHWYLQKPGQSPKLLIYKVSNRFSGVPDRFSGSGSGTDFTLKISRVETDDLGVYFCSQSTHVPTWTFGGGTKLEIK
binds: [1] | [2] | [3]

B5: TNFR2 antibody #219 (antibody, V domains shown)
VH: EVQLQESGAELVRPGASVKLSCKASGYSFTNYWMNWVKQRPGQGLEWIGMIHPSDTETRLNQNFKDKATLTVDKSSSTSYMQLSSPTSEDSAVYYCARGEGLGAARSVSMDYWGQGTTVTVSS
VL: DILMTQSPSSLSASLGDRVTISCRASQDISNYLNWYQQKPDGTVKVLIYYTAILHSGVPSRFSGSGSGTDYSLTISNLEQEDIATYFCQQGNTLPWTFGGGTKLEIK
binds: [1] | [2] | [3]

B6: TNFR2 antibody #226 (antibody, V domains shown)
VH: EVQLQESGAELVRPGASVKLSCKASGYSFTNYWMNWVKQRPGQGLEWIGMIHPSDSETRLNQKFKDKATLTVDKSSSTAYMQLSSPTSEDSAVYYCARGEGLGAARSVSMDYWGQGTTVTVSS
VL: DIQMTQSPSSLSASLGDRVTISCRASQDISNYLNWYQQKPDGTVKVLIYYTALLHSGVPSRFSGSGSGTDYSLTISNLEQEDIATYFCQQGNTLPWTFGGGTKLEIK
binds: [1] | [2] | [3]

B7: TNFR2 antibody #224 (antibody, V domains shown)
VH: EVQLQESGPEIVKPGASVKLSCTASGFNNKDIYMHWVKQRPEQGLEWIGRIDPATGNTKHDPKFQDKATLSSDTSSNTAYLQFSSLTSEDTAVYYCAHSPYGDFGAMDYWGQGTTVTVSS
VL: DIQMTQSPAIMSASLGERVTMTCTASSSVSSNYLHWYQQKPGSSPKLWIYSTSNLPSGVPARFSGSGSGTSYSLTISSMEAEDAATYYCHQYHRSPWTFGGGTKLEIK
binds: [1] | [2] | [3]

B8: TNFR2 antibody #309 (antibody, V domains shown)
VH: EVQLQESGAELVKPGASVKLSCKASGYTFTSYWIHWVKLRPGQGFEWIGEINPNNGGTDYNEKFKRKATLTVDKSSSTAYMELSSLTSEDSAIYYCTIDSMITTTWFAYWGQGTTVTVSS
VL: EIVMTQSQKLMSTVVGDRVSVTCKASQNVGTNVAWFQQKPGQSPKALINSASYRYSGVPDRFTGSGSGTDFTLTISSVQSEDLAEYFCQQYNSYPFTFGSGTKLEIK
binds: [1] | [2] | [3]

B9: TNFR2 antibody #352 (antibody, V domains shown)
VH: EVQLQESGPGLVAPSQSLSITCTVSGFSLTSYGVHWVRQPPGKGLEWLVVIWSDGGTTYNSALKSRLSISKDNSKSQVFLKMNSLQTDDTAMYYCARHDDDGYYAMDYWGQGTTVTVSS
VL: DIVLTQSPSLMSASPGEKVTMTCSASSSVGYMYWYQQKPRSSPKPWIYLTSNLASGVPARFSGSGSGTSYSLTISSMEVEDAATYYCQQWSSDPFTFGSGTKLEIK
binds: [1] | [2] | [3]

B10: TNFR2 antibody #365 (antibody, V domains shown)
VH: EVQLQESGPGLVQPSQSLSITCTVSGFSLTSYGVHWVRQSPGKGLEWLGLIWSDGSPDYSAAFISRLSINKDNSKSQVFFKMNSLQADDTAIYYCARNDDGGDYVMDYWGQGTTVTVSS
VL: EIVLTQSPALMSASPGEKVTMTCSASSSVSYMYWYQQKPRSSPKPWIYLTSNLASGVPARFSGSGSGTSYSLTISSMEAEDAATYYCQQWTSNPLTFGAGTKLEIK
binds: [1] | [2] | [3]

B11: TNFR2 antibody #395 (antibody, V domains shown)
VH: EVQLQESGPVLVQPSQSLSITCTVSGFSLTSYSVHWVRQSPGKGLEWLGVIWSDGGTDYSAAFISRLSISKDNSKSQVFFKMNSLQADDTAIYYCARNDDGGDYAMDYWGQGTTVTVSS
VL: EIVLTQSPALMSASPGEKVTMTCSASSSVSYMYWYQQKPRSSPKPWIYLTSNLASGVPARFSGSGSGTSYSLTISSMEAEDAATYYCQQWSSNPLTFGAGTKLEIK
binds: [1] | [2] | [3]
